Here are results for nine compounds from the supplement of paper PMC12889115.

This is one part of the list. These are raw signals, not scaled to a control.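 First-pass screen: polymyxin B was added at a level that permeabilizes the Salmonella outer membrane while sparing the inner membrane. DMSO wells, with and without polymyxin B, defined maximum growth. Because plates differed from one another, each plate's data were ranked separately and the compounds with the lowest OD600 were carried forward as hits.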

The subject of the assay is Salmonella enterica serovar Typhimurium SL1344. The experiment in a line: bacterial growth OD600 after 18 h with compound and polymyxin B; higher = more bacterial growth (less inhibition). The following applies: 50 µM, Mueller-Hinton broth.

With `Cc1cnc(C)c(-c2ccc3c(c2)CC(CNC(=O)Cc2cccc(C(F)(F)F)c2)O3)n1` (centres undefined), for the setting “polymyxin B 0.75 µg/mL”, the “bacterial growth OD600” value was found to be 0.88. On to `CN1CCN(C(=O)c2cc(COc3cncc(Cl)c3)on2)CC1c1ccccc1` (centres undefined), for which, for the setting “polymyxin B 1 µg/mL”, the “bacterial growth OD600” value turned out to be 0.815. The same measure, in the same setting: with `COc1ccc(CN2CCN(Cc3nc(C(C)C)cs3)CC2CCO)c(C)c1C` (centres undefined) the figure was 0.937.

Regarding `Cc1ccc(Oc2ncccc2CNC(=O)c2ccc(C)nc2)cn1`, where the note is “polymyxin B 1 µg/mL”, the “bacterial growth OD600” value worked out at 1.04. On the same count and under the same terms, with `Cc1ccccc1CN1C[C@@H]2C[C@@H](c3cc4ccccc4o3)N3CCC[C@@]23C1=O` the figure was 0.011. On to `COCCCN1C(=O)CC(CC(=O)N2CCN(c3ccccc3)CC2)(c2ccccc2OC)C1=O` (centres undefined), for which the “bacterial growth OD600” value (polymyxin B 0.75 µg/mL) was 0.739. As for `CSc1ccccc1C(=O)N1CCCC(Nc2ccc(F)cc2)C1` (centres undefined), where the note is “polymyxin B 1 µg/mL”, the “bacterial growth OD600” value was 0.845. Same read-out and setting: with `CC(C)CC(=O)Nc1ccnn1C1CCN(Cc2ccc(OCCO)cc2)CC1` the figure was 1.12. For `CO[C@H]1[C@H](NC(=O)COc2ccccc2)c2ccccc2C12CCN(C(=O)Cn1ccc(C)n1)CC2`, for the setting “polymyxin B 0.75 µg/mL”, the “bacterial growth OD600” value was 0.839.
